The test can be described thus: qHTS Assay for Lipid Storage Modulators in Drosophila S3 Cells.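 On cell number change: cells counted by Cell Tracker Red CMTPX staining in the red channel.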 Conditions: BODIPY lipid droplet fluorescence, 18-24 h; for cell number change: measured here: cell count max response, cells fed with added oleic acid. An outline of the steps: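 Drosophila S3 cells got compounds at several concentrations plus oleic acid (400 uM solution). Laser-scanning cytometry with 488 nm excitation read lipid droplets at 500-530 nm and cells at 575-640 nm. Percent activity was relative to 20 uM Triacsin C.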
A general note: qHTS replaces the single test concentration by a dilution series.

Where [1] appears, read: measured here: lipid fluorescence (Fed channel) AC50, cells fed with added oleic acid.
[2] abbreviates: measured here: cell number channel AC50, cells fed with added oleic acid.

This is one part of the list. Further columns of the screen follow, without active or inactive calls. The list favours compounds with an active or inconclusive main result. Words in brackets tell the shape of the fitted curve; partial curves, single points and poor fits give uncertain potencies.

As for `COc1cccc2c1[C@@H]1CN(CCCCn3c(=O)[nH]c4c(sc5ncc(-c6ccccc6)nc54)c3=O)C[C@@H]1CO2`, the cell number change came to 12.2%. For the same compound, the AC50 under setting [1] was 18.4 µM [rising, single point].

Take `Nc1ccn(C2CC(O)C(CO)O2)c(=O)n1` (stereo unspecified): the cell number change is 9.81%. Moreover, the AC50 under setting [1] was 29.1 µM [rising, single point].

Consider `COC(=O)c1ccc(NC(=O)Nc2ccc([N+](=O)[O-])cc2)cc1`, for which the cell number change was -34.4%. The AC50 under setting [2] was 16.4 µM [falling, single point]. Moreover, the AC50 under setting [1] was 11.6 µM [falling, partial curve].

Take `O=C(Cn1nnc2ccccc2c1=O)NCc1ccco1`: the cell number change is -29.9%. Also, the AC50 under setting [2] was 0.146 µM [falling, full curve]. The AC50 under setting [1] is 6.51 µM [falling, single point].

As to `O=C(CCNC(=O)c1ccc(Cl)cc1)NCC(c1ccco1)N1CCCC1` (stereo unspecified), the cell number change is -8.84%.

For `CCOc1ccc(S(=O)(=O)N2CCC(C(=O)Nc3cccc(NC(C)=O)c3)CC2)cc1`, the cell number change is 18.9%. For the same compound, the AC50 under setting [1] is 29.1 µM [rising, single point].

On to `CCN(CC)C(=O)CSc1nnc(CNc2ccc(F)cc2)n1Cc1ccco1`, for which the cell number change amounted to 1.12%. Further, the half-maximal activity concentration (AC50) under setting [1] is 23.1 µM [rising, single point].

Consider `Cc1cn(C(=O)C(C)N2C(=O)c3ccccc3C2=O)c(C)n1` (stereo unspecified), for which the concentration at half-maximal activity (AC50) under setting [1] is 0.731 µM [rising, single point].

Take `COc1ccc(Cn2c(N)c(C#N)c3nc4ccccc4nc32)cc1`: the cell number change is -58.9%. Further, the AC50 under setting [2] was 4.11 µM [falling, single point].

With `Cc1ccc2cc(CCNC(=O)CCCc3ccccc3)c(=O)[nH]c2c1`, the cell number change amounted to 4.42%. In addition, the AC50 under setting [1] is 29.1 µM [rising, single point].

Turning to `CC1=NN(C(=O)c2ccc(Br)cc2)C(O)(C(F)(F)OC(F)(F)F)C1` (stereo unspecified), the cell number change was -30.1%. In addition, the AC50 under setting [2] is 32.6 µM [falling, single point].

`O=C(Nc1cccc(S(=O)(=O)N2CCCCC2)c1)C1CCCN1S(=O)(=O)c1ccccc1F` (stereo unspecified): the cell number change was -27.4%. Also, under setting [1], the AC50 is 23.1 µM [falling, single point].

Consider `CCn1ncc(C2C(C(=O)Nc3ccc(C)cn3)=C(C)NC3=C2C(=O)CCC3)c1C` (stereo unspecified), for which, under setting [1], the AC50 was 1.64 µM [rising, partial curve].

As to `COc1cc(/C=N/NC(=O)c2ccccn2)cc2c1OCO2`, the cell number change turned out to be 14.3%. Also, under setting [1], the AC50 is 0.00517 µM [rising, full curve, poor fit].

For the compound `CCOC(=O)c1nc(Nc2ccc(C)cc2)c2ccccc2n1`, the cell number change is -14.1%. The AC50 under setting [1] is 18.4 µM [rising, single point].

As to `CCCCC(=O)Nc1cc(C)c(NC(=O)c2ccco2)cn1`, the cell number change was 15.3%.

`CN(C)S(=O)(=O)n1cc(/C=C(\NC(=O)c2ccccc2F)C(=O)N2CCOCC2)c2ccccc21`: under setting [1], the AC50 is 6.51 µM [rising, single point].

One may read the AC50 as the concentration giving half of the maximal activity seen. A low value points to greater potency.
